## Results from one PubChem assay

Data taken from PubChem BioAssay AID1159506, deposited by NCATS (2015).

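Genome-wide siRNA knockdown in TC32 Ewing sarcoma cells, comparing luciferase light from an NR0B1-promoter reporter with a CMV-promoter reporter 48 hours after transfection.
Each siRNA was applied at 20 nM.
A z-score of the log NR0B1-over-CMV signal, less the median of siRNAs with the same seed; more negative means a stronger specific loss of the NR0B1 reporter.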

This is part of the screen; most of the strongest results are not listed here.
Sequences are the guide (antisense) strand, without overhang.

{"strand": "UGUUGUUUUCAGAUGGUGC", "target gene": "UBE2B", "seed-corrected z-score": "-1.186"}
{"strand": "UCCGAUAAUAGAUAAAGUG", "target gene": "CASD1", "seed-corrected z-score": "0.8441"}
{"strand": "UUAGCCUCGGGUUCAGCUG", "target gene": "IFI27L2", "seed-corrected z-score": "-1.159"}
{"strand": "UAAGGCUUGAGUACUUCCU", "target gene": "C5orf63", "seed-corrected z-score": "0.01678"}
{"strand": "UAAUCAUUAUGCUGGGUCC", "target gene": "CEBPE", "seed-corrected z-score": "-0.8214"}
{"strand": "UCAUGUACCUAAUCACUCG", "target gene": "AP4B1", "seed-corrected z-score": "0.2818"}
{"strand": "UCUGGUGAUGGUCAUAUCG", "target gene": "C12orf10", "seed-corrected z-score": "0.1821"}
{"strand": "UCCGUAAAGUGGGUAGGGC", "target gene": "LINC00207", "seed-corrected z-score": "0.2581"}
{"strand": "UCUGUUGUCAGUAUGCGUC", "target gene": "DST", "seed-corrected z-score": "1.417"}
{"strand": "UAUAGUAUACUCGCCUUUG", "target gene": "FAM71C", "seed-corrected z-score": "-1.468"}
{"strand": "UUCAUUAAAAUCCAUGUAG", "target gene": "NT5C3B", "seed-corrected z-score": "0.3013"}
{"strand": "AAACGGUAUCCGAGGAGGC", "target gene": "LOC729558", "seed-corrected z-score": "-0.5758"}
{"strand": "AAGGUGGUAAUUAACCCGG", "target gene": "MTHFR", "seed-corrected z-score": "-0.9574"}
{"strand": "UCACUUCUGAGUACCCGGG", "target gene": "JMJD8", "seed-corrected z-score": "0.5157"}
{"strand": "AAGCGAAUCAUUCUCAUUG", "target gene": "RAP1GDS1", "seed-corrected z-score": "0.3039"}
{"strand": "UUGUUCUUCAGGGUGAGCU", "target gene": "LIMS2", "seed-corrected z-score": "0.4268"}
{"strand": "UUUACUUCGAAAGUCGUUC", "target gene": "TMEM242", "seed-corrected z-score": "-0.1423"}
{"strand": "UCAGUGUCCACUUCUUCUU", "target gene": "FGFRL1", "seed-corrected z-score": "0.1849"}
{"strand": "UCAGCAAAGGACAAGAUGC", "target gene": "OR1L3", "seed-corrected z-score": "1.105"}
{"strand": "UUACGAGAAAACACUAGUG", "target gene": "NIPBL", "seed-corrected z-score": "0.1345"}
{"strand": "UAGCAGCACAUUCCCUUUC", "target gene": "SSR4P1", "seed-corrected z-score": "0.6888"}
{"strand": "AUCAAAAUUGGCCUUGGGC", "target gene": "C8G", "seed-corrected z-score": "1.064"}
{"strand": "UGUUGGGAUAGUCUCUACC", "target gene": "UPP1", "seed-corrected z-score": "-1.07"}
{"strand": "UUUCCAACAAGAAUCCGUG", "target gene": "RAB33B", "seed-corrected z-score": "1.042"}
{"strand": "UCUUCGUUCUCUAUCAUCC", "target gene": "PARD3", "seed-corrected z-score": "-0.3696"}
{"strand": "UCCAGUAUGAUAAUAUCGC", "target gene": "ZNF470", "seed-corrected z-score": "-1.205"}
{"strand": "UUUGUCUACUCAAGGUCCC", "target gene": "NOL3", "seed-corrected z-score": "0.4718"}
{"strand": "UAUCUUCCAACAGACCCAC", "target gene": "H3F3C", "seed-corrected z-score": "0.9366"}
{"strand": "UUCCCGGACAUCAAAGAGC", "target gene": "DOCK4", "seed-corrected z-score": "-0.5647"}
{"strand": "UUCUUGUCCCGUUGAAGGG", "target gene": "LXN", "seed-corrected z-score": "0.116"}
{"strand": "UGUGGAUUGAUUGUCUUGG", "target gene": "SCGB2A2", "seed-corrected z-score": "-1.051"}
{"strand": "UCAGAUUACUGGUCCAUAG", "target gene": "COX7A2", "seed-corrected z-score": "0.0655"}
{"strand": "UUGGGAAUGGGUACGAUGA", "target gene": "MANBAL", "seed-corrected z-score": "-0.1833"}
{"strand": "AAACGACUCAGUACUGAAG", "target gene": "ALG13", "seed-corrected z-score": "0.65"}
{"strand": "UUAAGAUUUUCCAUGAACG", "target gene": "NIPSNAP3B", "seed-corrected z-score": "0.4822"}
{"strand": "UAUUCGUCUUCAGUAAGUG", "target gene": "AGTR2", "seed-corrected z-score": "-0.4597"}
{"strand": "AGAGUGUCGAUUUCUCUAC", "target gene": "WDR37", "seed-corrected z-score": "0.4695"}
{"strand": "UGAACUUGAUUUUCGAUCU", "target gene": "OVOL2", "seed-corrected z-score": "0.9571"}
{"strand": "UCAGUCACGAGGAUAUCGG", "target gene": "CACNA1A", "seed-corrected z-score": "0.441"}
{"strand": "UUGCAUACCACCAUCUUCU", "target gene": "CPSF4L", "seed-corrected z-score": "0.3764"}
{"strand": "UUCGCUUAAAUGAUGCUUG", "target gene": "MAPRE2", "seed-corrected z-score": "0.04038"}
{"strand": "UGUUUAGAAACGGUUUUGC", "target gene": "SLC41A3", "seed-corrected z-score": "-0.06801"}
{"strand": "UAUCCUAGCUUUAUUAAAG", "target gene": "PPP1R14B", "seed-corrected z-score": "-0.01568"}
{"strand": "UGUCUAAUAAGAUGUCCAC", "target gene": "CBY1", "seed-corrected z-score": "0.7217"}

Once more, the final 4:

| strand | target gene | seed-corrected z-score |
|---|---|---|
| `UUCGCUUAAAUGAUGCUUG` | MAPRE2 | 0.04038 |
| `UGUUUAGAAACGGUUUUGC` | SLC41A3 | -0.06801 |
| `UAUCCUAGCUUUAUUAAAG` | PPP1R14B | -0.01568 |
| `UGUCUAAUAAGAUGUCCAC` | CBY1 | 0.7217 |